Results taken from US6858583B2, “Hemoglobin alpha chain peptide fragments useful for inhibiting stem cell proliferation” (Wellstat Therapeutics Corporation, priority 1993, dated 2005).
Some of these results come from one statement about several compounds together.

Tested on: FDCP mix A4 (A4) stem cell line
Assay: Tritiated thymidine incorporation by FDCP mix A4 cells
Format: cell-based, murine
Details: FIG. 20

Substance	concentration at which inhibition is seen
Porcine alpha chain: porcine hemoglobin alpha chain purified from peripheral red blood cells as in FIG. 21	< 2 ng/mL
Porcine beta chain: reverse-phase purified porcine hemoglobin beta chain	< 2 ng/mL
